Assay results published in patent publication US20160312218A1, “SYSTEM FOR CO-DELIVERY OF POLYNUCLEOTIDES AND DRUGS INTO PROTEASE-EXPRESSING CELLS” (NORTHEASTERN UNIVERSITY, priority 2013, published 2016).

System: siRNA
Assay: Gel retardation assay (siRNA complexation)
Type: binding
Conditions: agarose gel, N/P 10, 20 and 40

PEI (1800 Da)-1,2-dioleoyl-sn-glycero-3-phosphoethanolamine (DOPE) [PEI-PE, reference compound]
nitrogen to phosphate ratio (N/P) needed to completely condense free siRNA: < 10

polyethylene glycol-peptide-polyethylenimine-1,2-dioleoyl-snglycero-3-phosphoethanolamine (GPLGIAGQ) [PEG-pp-PEI-PE]
nitrogen to phosphate ratio (N/P) needed to completely condense free siRNA: 40
